# Experimental data: article doi:10.1101/2024.09.03.611033
# Amino acid sequences for entries named in this document (tags omitted).
# UniProt Q9Y4X5: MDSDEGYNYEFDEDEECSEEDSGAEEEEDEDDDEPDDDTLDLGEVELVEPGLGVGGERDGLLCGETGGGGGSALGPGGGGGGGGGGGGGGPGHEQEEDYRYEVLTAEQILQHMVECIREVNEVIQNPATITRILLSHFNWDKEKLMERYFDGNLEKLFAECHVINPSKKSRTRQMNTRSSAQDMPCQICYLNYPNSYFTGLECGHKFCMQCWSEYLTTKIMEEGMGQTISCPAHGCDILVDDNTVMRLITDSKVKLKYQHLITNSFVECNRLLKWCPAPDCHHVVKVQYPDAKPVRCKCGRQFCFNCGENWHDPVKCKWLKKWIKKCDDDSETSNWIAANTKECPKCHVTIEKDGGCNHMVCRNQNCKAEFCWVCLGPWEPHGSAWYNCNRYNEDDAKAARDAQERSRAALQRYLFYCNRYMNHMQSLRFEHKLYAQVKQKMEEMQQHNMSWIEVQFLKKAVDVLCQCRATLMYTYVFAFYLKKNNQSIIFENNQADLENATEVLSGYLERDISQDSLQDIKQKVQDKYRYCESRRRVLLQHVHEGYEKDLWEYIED
# UniProt P11940: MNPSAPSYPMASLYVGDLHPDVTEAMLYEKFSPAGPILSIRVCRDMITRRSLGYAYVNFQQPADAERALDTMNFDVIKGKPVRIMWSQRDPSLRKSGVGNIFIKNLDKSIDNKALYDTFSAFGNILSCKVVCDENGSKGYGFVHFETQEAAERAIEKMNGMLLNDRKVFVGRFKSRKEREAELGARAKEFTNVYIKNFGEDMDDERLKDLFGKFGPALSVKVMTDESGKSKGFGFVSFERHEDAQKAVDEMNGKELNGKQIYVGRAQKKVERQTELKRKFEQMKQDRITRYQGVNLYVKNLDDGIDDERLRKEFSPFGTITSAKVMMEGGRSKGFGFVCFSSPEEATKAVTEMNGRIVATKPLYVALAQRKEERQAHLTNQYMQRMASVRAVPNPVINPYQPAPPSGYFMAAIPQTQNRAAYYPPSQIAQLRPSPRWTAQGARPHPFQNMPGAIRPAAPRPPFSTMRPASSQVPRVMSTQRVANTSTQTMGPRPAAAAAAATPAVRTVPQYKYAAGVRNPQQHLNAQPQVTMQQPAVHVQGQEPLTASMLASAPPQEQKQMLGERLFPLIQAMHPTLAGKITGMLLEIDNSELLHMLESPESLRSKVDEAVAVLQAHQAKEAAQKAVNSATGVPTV
# UniProt Q99471: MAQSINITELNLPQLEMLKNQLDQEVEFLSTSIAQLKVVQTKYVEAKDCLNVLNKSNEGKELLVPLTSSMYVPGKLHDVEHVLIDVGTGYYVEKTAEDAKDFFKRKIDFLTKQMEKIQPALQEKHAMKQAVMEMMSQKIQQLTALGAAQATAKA
# UniProt Q9UNE7: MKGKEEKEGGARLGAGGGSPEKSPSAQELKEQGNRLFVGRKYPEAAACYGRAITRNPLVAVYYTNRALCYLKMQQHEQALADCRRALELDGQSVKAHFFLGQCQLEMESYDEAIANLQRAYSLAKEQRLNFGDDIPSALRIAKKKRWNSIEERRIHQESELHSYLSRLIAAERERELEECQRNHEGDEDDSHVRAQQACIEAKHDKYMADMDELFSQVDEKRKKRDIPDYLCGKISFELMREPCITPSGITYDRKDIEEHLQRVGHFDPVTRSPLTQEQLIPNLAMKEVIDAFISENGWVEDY
# UniProt Q13148: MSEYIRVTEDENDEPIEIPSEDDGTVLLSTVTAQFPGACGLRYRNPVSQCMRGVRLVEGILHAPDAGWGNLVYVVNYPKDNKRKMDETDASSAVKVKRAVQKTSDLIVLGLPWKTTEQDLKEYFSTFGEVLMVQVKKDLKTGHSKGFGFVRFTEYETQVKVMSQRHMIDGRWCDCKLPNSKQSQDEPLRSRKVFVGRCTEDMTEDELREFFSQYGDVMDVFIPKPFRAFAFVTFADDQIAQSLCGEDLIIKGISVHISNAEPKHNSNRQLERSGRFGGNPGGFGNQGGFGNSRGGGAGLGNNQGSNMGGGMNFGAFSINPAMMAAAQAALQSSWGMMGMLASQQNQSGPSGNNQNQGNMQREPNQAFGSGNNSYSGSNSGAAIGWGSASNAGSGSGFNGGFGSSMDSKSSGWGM
# UniProt Q7Z2W4: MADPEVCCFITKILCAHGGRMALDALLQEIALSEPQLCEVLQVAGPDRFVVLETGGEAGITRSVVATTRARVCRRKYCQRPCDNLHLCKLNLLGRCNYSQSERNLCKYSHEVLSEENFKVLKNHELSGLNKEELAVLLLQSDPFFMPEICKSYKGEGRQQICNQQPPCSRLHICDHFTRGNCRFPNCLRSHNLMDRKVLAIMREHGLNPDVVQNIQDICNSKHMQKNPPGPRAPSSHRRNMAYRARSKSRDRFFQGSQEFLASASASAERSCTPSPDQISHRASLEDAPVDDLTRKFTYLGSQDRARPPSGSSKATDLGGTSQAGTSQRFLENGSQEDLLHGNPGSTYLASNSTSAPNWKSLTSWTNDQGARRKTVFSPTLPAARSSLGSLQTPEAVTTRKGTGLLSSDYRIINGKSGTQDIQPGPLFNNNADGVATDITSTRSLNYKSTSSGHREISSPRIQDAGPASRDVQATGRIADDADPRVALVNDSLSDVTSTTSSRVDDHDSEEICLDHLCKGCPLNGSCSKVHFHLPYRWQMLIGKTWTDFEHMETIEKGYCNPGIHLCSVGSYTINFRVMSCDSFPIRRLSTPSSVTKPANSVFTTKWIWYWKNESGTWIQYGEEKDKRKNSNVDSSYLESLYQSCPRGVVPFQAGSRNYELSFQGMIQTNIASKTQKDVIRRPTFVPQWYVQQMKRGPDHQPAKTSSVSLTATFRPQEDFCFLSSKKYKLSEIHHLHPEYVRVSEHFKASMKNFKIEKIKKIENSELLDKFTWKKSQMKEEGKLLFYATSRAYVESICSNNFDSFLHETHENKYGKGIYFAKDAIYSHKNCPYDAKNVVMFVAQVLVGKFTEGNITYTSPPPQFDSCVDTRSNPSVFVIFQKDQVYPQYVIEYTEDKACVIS
# UniProt P20700: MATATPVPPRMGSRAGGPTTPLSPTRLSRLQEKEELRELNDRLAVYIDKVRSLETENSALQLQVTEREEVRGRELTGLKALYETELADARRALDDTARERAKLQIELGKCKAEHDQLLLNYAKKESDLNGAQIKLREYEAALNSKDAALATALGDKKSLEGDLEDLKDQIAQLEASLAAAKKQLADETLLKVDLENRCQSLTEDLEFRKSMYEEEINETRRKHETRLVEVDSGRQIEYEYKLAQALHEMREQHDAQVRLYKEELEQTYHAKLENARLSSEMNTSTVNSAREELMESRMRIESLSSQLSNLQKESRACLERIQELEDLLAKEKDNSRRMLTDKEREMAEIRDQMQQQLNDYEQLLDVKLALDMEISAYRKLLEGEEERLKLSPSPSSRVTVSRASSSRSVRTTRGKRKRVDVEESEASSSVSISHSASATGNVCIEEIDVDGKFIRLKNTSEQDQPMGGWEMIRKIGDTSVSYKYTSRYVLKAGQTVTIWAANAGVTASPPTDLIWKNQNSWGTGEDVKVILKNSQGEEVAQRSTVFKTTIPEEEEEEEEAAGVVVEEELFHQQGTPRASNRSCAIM
# UniProt P08670: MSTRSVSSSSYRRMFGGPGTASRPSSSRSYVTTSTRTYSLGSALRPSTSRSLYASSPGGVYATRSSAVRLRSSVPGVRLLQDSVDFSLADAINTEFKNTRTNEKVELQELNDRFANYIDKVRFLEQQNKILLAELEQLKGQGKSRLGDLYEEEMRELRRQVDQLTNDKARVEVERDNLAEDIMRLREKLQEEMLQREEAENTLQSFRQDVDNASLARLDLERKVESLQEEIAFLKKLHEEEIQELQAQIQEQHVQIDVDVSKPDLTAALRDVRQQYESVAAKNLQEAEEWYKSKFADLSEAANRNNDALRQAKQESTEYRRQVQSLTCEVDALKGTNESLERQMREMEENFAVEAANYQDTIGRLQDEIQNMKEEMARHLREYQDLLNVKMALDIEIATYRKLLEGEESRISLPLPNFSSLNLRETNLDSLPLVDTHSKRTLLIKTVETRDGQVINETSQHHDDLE
# T1: GFP-tagged human gigaxonin (human) (UniProt Q9H2C0)
# T1 sequence: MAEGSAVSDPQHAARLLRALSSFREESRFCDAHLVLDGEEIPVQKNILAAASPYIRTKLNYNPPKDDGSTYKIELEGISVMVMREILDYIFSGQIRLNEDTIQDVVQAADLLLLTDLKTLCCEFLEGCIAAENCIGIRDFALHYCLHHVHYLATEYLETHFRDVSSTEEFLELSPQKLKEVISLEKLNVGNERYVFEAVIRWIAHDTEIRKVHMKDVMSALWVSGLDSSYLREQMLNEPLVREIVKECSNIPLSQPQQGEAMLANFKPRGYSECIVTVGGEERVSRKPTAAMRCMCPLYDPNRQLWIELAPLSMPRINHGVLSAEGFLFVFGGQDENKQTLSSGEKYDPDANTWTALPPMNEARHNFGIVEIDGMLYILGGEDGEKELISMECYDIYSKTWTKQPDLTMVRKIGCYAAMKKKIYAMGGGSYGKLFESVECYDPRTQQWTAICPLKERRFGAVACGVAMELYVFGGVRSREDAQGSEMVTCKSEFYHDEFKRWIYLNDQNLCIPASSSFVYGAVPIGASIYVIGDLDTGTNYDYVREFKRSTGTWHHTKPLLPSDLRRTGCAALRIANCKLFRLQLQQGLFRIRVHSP
# B1: NUDCD3 (protein, UniProt Q8IVD9 1-361)
# chain: METGAAELYDQALLGILQHVGNVQDFLRVLFGFLYRKTDFYRLLRHPSDRMGFPPGAAQALVLQVFKTFDHMARQDDEKRRQELEEKIRRKEEEEAKTVSAAAAEKEPVPVPVQEIEIDSTTELDGHQEVEKVQPPGPVKEMAHGSQEAEAPGAVAGAAEVPREPPILPRIQEQFQKNPDSYNGAVRENYTWSQDYTDLEVRVPVPKHVVKGKQVSVALSSSSIRVAMLEENGERVLMEGKLTHKINTESSLWSLEPGKCVLVNLSKVGEYWWNAILEGEEPIDIDKINKERSMATVDEEEQAVLDRLTFDYHQKLQGKPQSHELKVHEMLKKGWDAEGSPFRGQRFDPAMFNISPGAVQF
# B2: TRIM38 (protein, UniProt O00635 1-465)
# chain: MASTTSTKKMMEEATCSICLSLMTNPVSINCGHSYCHLCITDFFKNPSQKQLRQETFCCPQCRAPFHMDSLRPNKQLGSLIEALKETDQEMSCEEHGEQFHLFCEDEGQLICWRCERAPQHKGHTTALVEDVCQGYKEKLQKAVTKLKQLEDRCTEQKLSTAMRITKWKEKVQIQRQKIRSDFKNLQCFLHEEEKSYLWRLEKEEQQTLSRLRDYEAGLGLKSNELKSHILELEEKCQGSAQKLLQNVNDTLSRSWAVKLETSEAVSLELHTMCNVSKLYFDVKKMLRSHQVSVTLDPDTAHHELILSEDRRQVTRGYTQENQDTSSRRFTAFPCVLGCEGFTSGRRYFEVDVGEGTGWDLGVCMENVQRGTGMKQEPQSGFWTLRLCKKKGYVALTSPPTSLHLHEQPLLVGIFLDYEAGVVSFYNGNTGCHIFTFPKASFSDTLRPYFQVYQYSPLFLPPPGD
# B3: KHSRP (protein, UniProt Q92945 1-711)
# chain: MSDYSTGGPPPGPPPPAGGGGGAGGAGGGPPPGPPGAGDRGGGGPGGGGPGGGSAGGPSQPPGGGGPGIRKDAFADAVQRARQIAAKIGGDAATTVNNSTPDFGFGGQKRQLEDGDQPESKKLASQGDSISSQLGPIHPPPRTSMTEEYRVPDGMVGLIIGRGGEQINKIQQDSGCKVQISPDSGGLPERSVSLTGAPESVQKAKMMLDDIVSRGRGGPPGQFHDNANGGQNGTVQEIMIPAGKAGLVIGKGGETIKQLQERAGVKMILIQDGSQNTNVDKPLRIIGDPYKVQQACEMVMDILRERDQGGFGDRNEYGSRIGGGIDVPVPRHSVGVVIGRSGEMIKKIQNDAGVRIQFKQDDGTGPEKIAHIMGPPDRCEHAARIINDLLQSLRSGPPGPPGGPGMPPGGRGRGRGQGNWGPPGGEMTFSIPTHKCGLVIGRGGENVKAINQQTGAFVEISRQLPPNGDPNFKLFIIRGSPQQIDHAKQLIEEKIEGPLCPVGPGPGGPGPAGPMGPFNPGPFNQGPPGAPPHAGGPPPHQYPPQGWGNTYPQWQPPAPHDPSKAAAAAADPNAAWAAYYSHYYQQPPGPVPGPAPAPAAPPAQGEPPQPPPTGQSDYTKAWEEYYKKIGQQPQQPGAPPQQDYTKAWEEYYKKQAQVATGGGPGAPPGSQPDYSAAWAEYYRQQAAYYGQTPGPGGPQPPPTQQGQQQAQ
# B4: keratin 18 (protein, UniProt P05783 1-430)
# chain: MSFTTRSTFSTNYRSLGSVQAPSYGARPVSSAASVYAGAGGSGSRISVSRSTSFRGGMGSGGLATGIAGGLAGMGGIQNEKETMQSLNDRLASYLDRVRSLETENRRLESKIREHLEKKGPQVRDWSHYFKIIEDLRAQIFANTVDNARIVLQIDNARLAADDFRVKYETELAMRQSVENDIHGLRKVIDDTNITRLQLETEIEALKEELLFMKKNHEEEVKGLQAQIASSGLTVEVDAPKSQDLAKIMADIRAQYDELARKNREELDKYWSQQIEESTTVVTTQSAEVGAAETTLTELRRTVQSLEIDLDSMRNLKASLENSLREVEARYALQMEQLNGILLHLESELAQTRAEGQRQAQEYEALLNIKVKLEAEIATYRRLLEDGEDFNLGDALDSSNSMQTIQKTTTRRIVDGKVVSETNDTKVLRH
# B5: lamin B2 (protein, UniProt Q03252 1-620)
# chain: MSPPSPGRRREQRRPRAAATMATPLPGRAGGPATPLSPTRLSRLQEKEELRELNDRLAHYIDRVRALELENDRLLLKISEKEEVTTREVSGIKALYESELADARRVLDETARERARLQIEIGKLRAELDEVNKSAKKREGELTVAQGRVKDLESLFHRSEVELAAALSDKRGLESDVAELRAQLAKAEDGHAVAKKQLEKETLMRVDLENRCQSLQEELDFRKSVFEEEVRETRRRHERRLVEVDSSRQQEYDFKMAQALEELRSQHDEQVRLYKLELEQTYQAKLDSAKLSSDQNDKAASAAREELKEARMRLESLSYQLSGLQKQASAAEDRIRELEEAMAGERDKFRKMLDAKEQEMTEMRDVMQQQLAEYQELLDVKLALDMEINAYRKLLEGEEERLKLSPSPSSRVTVSRATSSSSGSLSATGRLGRSKRKRLEVEEPLGSGPSVLGTGTGGSGGFHLAQQASASGSVSIEEIDLEGKFVQLKNNSDKDQSLGNWRIKRQVLEGEEIAYKFTPKYILRAGQMVTVWAAGAGVAHSPPSTLVWKGQSSWGTGESFRTVLVNADGEEVAMRTVKKSSVMRENENGEEEEEEAEFGEEDLFHQQGDPRTTSRGCYVM
# Target: T1, GFP-tagged human gigaxonin (human)
# Experiment: affinity purification with mass spectrometry; GFP-Gig from TritonX-100-soluble HEK293 lysate captured on TurboGFP-Trap magnetic agarose beads overnight at 4°C; on-bead tryptic digestion, LC-MS/MS; compared with untransfected and GFP vector-transfected cells
row,Molecule,binding
1,ARIH1 (from UniProt Q9Y4X5 1-557),binds
2,HUWE1 (from UniProt Q7Z6Z7 1-4374),binds
3,PABPC1 (from UniProt P11940 1-636),binds
4,PFDN5 (from UniProt Q99471 1-154),binds
5,STUB1 (from UniProt Q9UNE7 1-303),binds
6,TAR DNA-binding protein 43 (from UniProt Q13148 1-414),binds
7,ZC3HAV1 (from UniProt Q7Z2W4 1-902),binds
8,lamin B1 (from UniProt P20700 1-586),binds
9,vimentin (from UniProt P08670 1-466),binds
10,B1,binds
11,B2,binds
12,B3,binds
13,B4,binds
14,B5,binds

# No constants are given. Whether binding was seen depends on the method and setting. In cells and extracts the contact can be indirect. These calls come from enrichment with a bait or labelling near it, and not all partners need be listed. Sequences can lack the tags named with a protein.
